Reference: doi:10.1101/2024.10.08.617332 (bioRxiv, 2024)
These are yes or no findings as the source states them, for the method shown. Some results given as binding are weak or reduced against the parent protein; the word gives no strength.

Protein sequences, listed by entry. Tags and fused reporters are not part of them.
UniProt Q02248: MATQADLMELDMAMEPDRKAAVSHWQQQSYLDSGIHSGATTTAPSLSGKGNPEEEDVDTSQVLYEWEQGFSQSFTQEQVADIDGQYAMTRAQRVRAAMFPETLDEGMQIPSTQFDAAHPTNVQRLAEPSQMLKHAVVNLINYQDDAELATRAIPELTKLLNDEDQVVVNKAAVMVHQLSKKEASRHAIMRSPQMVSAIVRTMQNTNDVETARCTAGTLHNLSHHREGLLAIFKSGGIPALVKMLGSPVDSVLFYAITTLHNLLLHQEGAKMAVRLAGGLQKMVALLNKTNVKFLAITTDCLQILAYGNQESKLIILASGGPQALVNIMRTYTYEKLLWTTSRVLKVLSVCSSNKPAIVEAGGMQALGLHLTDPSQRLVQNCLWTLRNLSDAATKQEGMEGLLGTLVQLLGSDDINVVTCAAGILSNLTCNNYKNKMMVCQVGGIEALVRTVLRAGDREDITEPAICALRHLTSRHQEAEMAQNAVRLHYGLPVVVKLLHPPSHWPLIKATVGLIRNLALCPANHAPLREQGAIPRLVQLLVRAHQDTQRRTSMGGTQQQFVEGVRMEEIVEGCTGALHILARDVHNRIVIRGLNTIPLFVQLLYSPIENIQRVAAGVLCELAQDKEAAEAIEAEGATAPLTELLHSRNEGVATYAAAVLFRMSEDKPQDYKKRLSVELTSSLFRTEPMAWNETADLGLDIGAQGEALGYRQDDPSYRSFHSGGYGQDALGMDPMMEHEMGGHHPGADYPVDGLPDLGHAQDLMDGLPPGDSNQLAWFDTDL
UniProt P26231: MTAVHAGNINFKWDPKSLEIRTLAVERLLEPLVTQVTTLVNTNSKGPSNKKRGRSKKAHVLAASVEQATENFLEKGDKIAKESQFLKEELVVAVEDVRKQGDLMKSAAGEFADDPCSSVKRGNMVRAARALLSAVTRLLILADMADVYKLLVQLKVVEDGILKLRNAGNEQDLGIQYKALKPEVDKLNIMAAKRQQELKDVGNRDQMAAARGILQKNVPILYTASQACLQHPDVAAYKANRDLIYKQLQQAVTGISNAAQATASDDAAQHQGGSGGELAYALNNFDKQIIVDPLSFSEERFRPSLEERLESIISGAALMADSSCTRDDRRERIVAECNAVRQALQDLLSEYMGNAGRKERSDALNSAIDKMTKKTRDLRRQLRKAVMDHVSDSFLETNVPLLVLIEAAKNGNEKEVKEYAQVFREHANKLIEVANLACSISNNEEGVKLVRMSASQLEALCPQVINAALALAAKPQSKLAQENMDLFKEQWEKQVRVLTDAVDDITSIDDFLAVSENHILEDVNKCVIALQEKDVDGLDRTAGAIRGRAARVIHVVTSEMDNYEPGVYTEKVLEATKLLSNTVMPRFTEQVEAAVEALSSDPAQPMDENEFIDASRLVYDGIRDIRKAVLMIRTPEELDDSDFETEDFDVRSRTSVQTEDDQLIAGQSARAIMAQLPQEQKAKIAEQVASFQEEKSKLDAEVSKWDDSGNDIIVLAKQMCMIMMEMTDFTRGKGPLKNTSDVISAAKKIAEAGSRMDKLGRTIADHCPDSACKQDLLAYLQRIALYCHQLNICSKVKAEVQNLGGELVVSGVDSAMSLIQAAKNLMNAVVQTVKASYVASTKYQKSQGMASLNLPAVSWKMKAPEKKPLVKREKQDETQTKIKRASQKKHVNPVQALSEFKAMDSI

Biological target: full length β-catenin (mouse) (UniProt Q02248)
Experiment: affinity co-purification + anion exchange + SEC; co-expression of GFP-E-cadherin, untagged β-catenin and untagged αE-catenin in FreeStyle 293-F; anti-GFP beads, TEV, MonoQ, Superdex 200

binding: binds
Substance: full-length αE-catenin (from UniProt P26231 1-906)
